Protein sequences, listed by entry. Tags and fused reporters are not part of them.
UniProt P25694: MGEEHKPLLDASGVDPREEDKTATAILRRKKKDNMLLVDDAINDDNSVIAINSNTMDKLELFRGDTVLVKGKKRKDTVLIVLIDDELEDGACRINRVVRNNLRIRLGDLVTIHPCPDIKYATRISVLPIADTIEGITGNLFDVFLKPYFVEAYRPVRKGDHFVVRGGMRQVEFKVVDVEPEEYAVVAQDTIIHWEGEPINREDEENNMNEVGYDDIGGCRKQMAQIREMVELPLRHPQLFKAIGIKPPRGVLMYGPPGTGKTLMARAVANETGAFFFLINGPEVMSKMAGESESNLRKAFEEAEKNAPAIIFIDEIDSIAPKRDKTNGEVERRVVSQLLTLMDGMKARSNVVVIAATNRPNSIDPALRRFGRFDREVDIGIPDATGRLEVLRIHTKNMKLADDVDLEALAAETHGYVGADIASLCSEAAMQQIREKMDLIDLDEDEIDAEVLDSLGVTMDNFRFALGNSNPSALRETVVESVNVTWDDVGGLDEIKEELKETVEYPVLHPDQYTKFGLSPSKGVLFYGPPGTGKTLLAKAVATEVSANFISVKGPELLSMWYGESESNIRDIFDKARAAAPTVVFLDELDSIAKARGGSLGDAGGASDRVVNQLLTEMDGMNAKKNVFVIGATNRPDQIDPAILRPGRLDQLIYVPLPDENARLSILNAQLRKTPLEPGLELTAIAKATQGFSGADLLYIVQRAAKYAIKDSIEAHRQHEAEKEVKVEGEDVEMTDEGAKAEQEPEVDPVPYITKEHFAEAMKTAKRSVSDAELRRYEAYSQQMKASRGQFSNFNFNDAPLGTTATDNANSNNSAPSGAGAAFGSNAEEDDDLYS

In PMC12137173:

B1: Phosphoenolpyruvate carboxykinase (Pck1) (protein, UniProt P10963 1-549)
chain: MSPSKMNATVGSTSEVEQKIRQELALSDEVTTIRRNAPAAVLYEDGLKENKTVISSSGALIAYSGVKTGRSPKDKRIVEEPTSKDEIWWGPVNKPCSERTWSINRERAADYLRTRDHIYIVDAFAGWDPKYRIKVRVVCARAYHALFMTNMLIRPTEEELAHFGEPDFTVWNAGQFPANLHTQDMSSKSTIEINFKAMEMIILGTEYAGEMKKGIFTVMFYLMPVHHNVLTLHSSANQGIQNGDVTLFFGLSGTGKTTLSADPHRLLIGDDEHCWSDHGVFNIEGGCYAKCINLSAEKEPEIFDAIKFGSVLENVIYDEKSHVVDYDDSSITENTRCAYPIDYIPSAKIPCLADSHPKNIILLTCDASGVLPPVSKLTPEQVMYHFISGYTSKMAGTEQGVTEPEPTFSSCFGQPFLALHPIRYATMLATKMSQHKANAYLINTGWTGSSYVSGGKRCPLKYTRAILDSIHDGSLANETYETLPIFNLQVPTKVNGVPAELLNPAKNWSQGESKYRGAVTNLANLFVQNFKIYQDRATPDVLAAGPQFE
B2: Succinate dehydrogenase (Sdh2) (protein, UniProt P21801 21-266)
chain: TATTAAATHTPRLKTFKVYRWNPDEPSAKPHLQSYQVDLNDCGPMVLDALLKIKDEQDSTLTFRRSCREGICGSCAMNIGGRNTLACICKIDQNESKQLKIYPLPHMFIVKDLVPDLTNFYQQYKSIQPYLQRSSFPKDGTEVLQSIEDRKKLDGLYECILCACCSTSCPSYWWNQEQYLGPAVLMQAYRWLIDSRDQATKTRKAMLNNSMSLYRCHTIMNCTRTCPKGLNPGLAIAEIKKSLAFA
B3: citrate synthase (Cit1) (protein, UniProt P00890 38-479)
chain: SSASEQTLKERFAEIIPAKAEEIKKFKKEHGKTVIGEVLLEQAYGGMRGIKGLVWEGSVLDPEEGIRFRGRTIPEIQRELPKAEGSTEPLPEALFWLLLTGEIPTDAQVKALSADLAARSEIPEHVIQLLDSLPKDLHPMAQFSIAVTALESESKFAKAYAQGVSKKEYWSYTFEDSLDLLGKLPVIASKIYRNVFKDGKITSTDPNADYGKNLAQLLGYENKDFIDLMRLYLTIHSDHEGGNVSAHTTHLVGSALSSPYLSLAAGLNGLAGPLHGRANQEVLEWLFKLREEVKGDYSKETIEKYLWDTLNAGRVVPGYGHAVLRKTDPRYTAQREFALKHFPDYELFKLVSTIYEVAPGVLTKHGKTKNPWPNVDSHSGVLLQYYGLTEASFYTVLFGVARAIGVLPQLIIDRAVGAPIERPKSFSTEKYKELVKKIESKN
B4: Ubx3 (protein, UniProt Q12229 1-455)
chain: MDIFRHTFGNNDDSFIRIPGAFREEPPADLNGRTEDQNSNTNEPTQSRDGRLKSILHFLFQAPLIVLYYLLNFIVRSSRLLKPLLRLHGFYQRKHNRLLDHSSQLHRLLENLENEAQAVTCSEGNGNNDDGSNTDSTSNNESSGVQFSFGSLYNPENGTFSKSIMQNSYTELLDACSEQVKFGVIYLHDPLLDNHMDYVNKILCSEAFVNMIRKYQVLLWYGDVTTSEGLQVSNALKIRQYPLLGIISLKAEKKIELIARVEGSISNYKAQDLEAIFSKNYSRLIQLRQQRQNIEMQRLIRQQQDSRYQDSLRRDQQRESERLEQTQREQMEREHQRIENQWLLWRKSQLKPEPSSDKDASKVAIRLENGQRLVRKFDASLPTEEIYAFVELQLHDMLNSENDTLPVYQPANYQHQYSFKLITPVPRRELDLSTKISDVSGIYPSGNIVMERLDE
B5: Ubx4 (protein, UniProt P54730 1-416)
chain: MPMVTVKYNFQLFKCKVSLNSTLNDVLHQSIQFFQLHTSSNDWSLIHLDKPVPLDLPWRLLNLPTGVNLELSKSSNFPVANKTNREDIPFNTIKIRFQIPGRDSVVKEMPSDQPIAPILRQMSGAAGDDFKIQVFSKIIEFKTIKDENLTLENLGIQEPSSVRLIFNNTSHSEGISANSAIHPKQTPPTMTNPETVASLPPHELHKPSVFLPSDEPLAVIKDQIEDEEDYELTVEQAKKYQKMLSSKAGTLGGPILTKRLREQSANNLPKKNKAISECLLRVKFPDRSHIQIAFKPNEDMRTVYNVVSQFLIDENMPFTLNQSHPFKPLAKDDKKLLDDLEFGSKTMLLFETNSNSNGPLIKAHLLEDAQKITHETRTTPSVNTINKSNPQGPSDNATSIKKTLNRVPKWMKLSKK

target: Cdc48 (WT), C-terminally tagged with FLAG and HIS-tag (S. cerevisiae) (UniProt P25694); experiment: affinity purification with mass spectrometry; FLAG-tagged Cdc48 (WT or C115S) co-immunoprecipitated on magnetic beads from yeast lysate (Tris HCl pH 7.5 with protease inhibitors, Triton; diluted 1:1 with 50 mM Tris-HCl pH 7.5, 200 mM NaAc, 10 % glycerol), overnight at 4 °C; cells grown 24 h and 48 h; LC-MS/MS with label-free quantification; PTM search of the same data by PROMISE

binding, binds:
B1
B2
B3
B4
B5

These are yes or no findings as the source states them, for the method shown. In cells and extracts the contact can be indirect. A yes stands for co-enrichment or nearness to the bait. Other partners may have been found.
